Measurements: article PMC8935240
These are yes or no findings as the source states them, for the method shown. Binding seen in cells or lysates may run through a third protein. Some results given as binding are weak or reduced against the parent protein; the word gives no strength.

By UniProt entry, the sequences of proteins in these tests, tags left out.
UniProt Q92560: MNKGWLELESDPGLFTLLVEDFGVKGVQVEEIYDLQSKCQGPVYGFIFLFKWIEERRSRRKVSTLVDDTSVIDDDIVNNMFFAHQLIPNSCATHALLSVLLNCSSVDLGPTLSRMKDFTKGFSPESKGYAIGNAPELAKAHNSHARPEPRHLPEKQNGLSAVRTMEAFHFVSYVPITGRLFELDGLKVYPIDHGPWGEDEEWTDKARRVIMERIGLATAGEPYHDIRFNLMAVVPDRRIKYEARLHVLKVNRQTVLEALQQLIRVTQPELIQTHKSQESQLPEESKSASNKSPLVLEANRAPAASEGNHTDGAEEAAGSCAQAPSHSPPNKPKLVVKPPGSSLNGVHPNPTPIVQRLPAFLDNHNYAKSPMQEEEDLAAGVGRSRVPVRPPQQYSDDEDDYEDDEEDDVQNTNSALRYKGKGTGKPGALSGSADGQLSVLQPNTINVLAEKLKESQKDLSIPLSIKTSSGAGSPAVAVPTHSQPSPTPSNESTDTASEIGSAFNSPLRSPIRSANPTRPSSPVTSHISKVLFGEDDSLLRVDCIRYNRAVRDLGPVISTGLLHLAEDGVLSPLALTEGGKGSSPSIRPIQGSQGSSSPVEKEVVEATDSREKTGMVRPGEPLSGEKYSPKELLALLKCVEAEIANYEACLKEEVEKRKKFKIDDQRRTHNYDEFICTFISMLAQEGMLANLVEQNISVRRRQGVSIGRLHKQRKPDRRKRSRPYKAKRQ
UniProt Q13887: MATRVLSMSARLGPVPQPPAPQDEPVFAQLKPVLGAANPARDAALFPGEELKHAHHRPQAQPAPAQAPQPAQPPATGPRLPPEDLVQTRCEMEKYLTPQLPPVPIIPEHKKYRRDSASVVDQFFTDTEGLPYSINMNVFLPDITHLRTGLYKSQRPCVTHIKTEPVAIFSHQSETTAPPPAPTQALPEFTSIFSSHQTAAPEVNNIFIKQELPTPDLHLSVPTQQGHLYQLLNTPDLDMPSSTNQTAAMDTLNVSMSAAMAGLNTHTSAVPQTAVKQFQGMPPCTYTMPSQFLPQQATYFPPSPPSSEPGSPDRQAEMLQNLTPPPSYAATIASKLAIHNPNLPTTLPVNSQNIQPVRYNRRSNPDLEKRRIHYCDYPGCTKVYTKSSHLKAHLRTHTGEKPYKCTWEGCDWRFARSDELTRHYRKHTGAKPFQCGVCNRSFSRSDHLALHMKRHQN

Experiments:
3×Flag-BAP1 = 3×Flag-BAP1 (UniProt Q92560); experiment: co-IP; KLF5 or KLF5-K369Q co-expressed with 3×Flag-BAP1 in HEK293T cells; 3×Flag-BAP1 immunoprecipitated with anti-Flag-M2 beads; Western blotting
[1] = molecular target: KLF5-3×Flag (wild type) (human) (UniProt Q13887); experiment: co-IP; KLF5-3×Flag or KLF5-K369Q-3×Flag co-expressed with BAP1 in HEK293T cells; KLF5-3×Flag proteins immunoprecipitated with anti-Flag-M2 beads; Western blotting

In the case of “wild-type human KLF5 (Krüppel-like factor 5), untagged (from UniProt Q13887 1-457)”, the binding (3×Flag-BAP1) is reported as “binds”.

For “BAP1, untagged (from UniProt Q92560 1-729) (enzyme)”, the binding [1] was “binds”.
